In patent US20240182862A1, “METHOD FOR PRODUCING MESENCHYMAL STEM CELLS” (AJINOMOTO CO., INC., priority 2021, published 2024):
At least one compound was matched to its structure with a doubt left.

Legend:
[1] = when hydrocortisone is set to 1; cited from earlier work
[2] = Titer of corticosteroid as glucocorticoid; conditions: titer as glucocorticoid taken for the converted concentrations of the Examples

Row | Compound | titer of corticosteroid as glucocorticoid [1] | titer used to convert concentrations [2]
1 | C[C@H]1C[C@@H]2[C@H]([C@@H](O)C[C@@]3(C)[C@H]2CC[C@]3(O)C(=O)CO)[C@@]2(C)C=CC(=O)C=C12 [methylprednisolone] | 5 | –
2 | C[C@H]1C[C@H]2[C@@H]3CCC4=CC(=O)C=C[C@]4(C)[C@@]3(F)[C@@H](O)C[C@]2(C)[C@@]1(O)C(=O)CO [Betamethasone] | – | 26.66
